Values from PubChem BioAssay AID1259254 (NCATS, 2017)
Test: 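Finding genes that stop cells copying their DNA twice in one cycle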 (primary screen). Cells: human HCT116 colorectal cancer cells. Reagents: single siRNA against human genes. Timing: 3 days. Read-out: 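Imaged Hoechst DNA stain sorts each cell into a cycle phase by DNA amount; per plate, G2 fraction set to 0% for non-targeting and 100% for GMNN siRNA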. Reading the numbers: G2 robust z-score and G2 cells, % of GMNN control: higher = more G2 cells, more excess DNA replication; raw share of cells in G2: higher = larger share of cells with G2 DNA content. Active means: 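An siRNA counts as active if its G2 robust z-score lies at least 5 MADs above the screen median; here such calls match roughly 38% of GMNN control or more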.
In all, the deposit lists about 59,000 reagents; shown is a part drawn at random. About 1,550 of them (2.6%) were called active. 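G2 share is only a proxy for re-replication; each gene was hit by three separate siRNAs, and active genes were retested.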 Raw values vary from plate to plate and are shown uncorrected. A number with no mark means an inactive call. The numbers tell different reagents against one gene apart. Not stated in the record: the amount of reagent.

The opening 8 entries, ahead of the listing:
| gene knocked down | reagent | G2 robust z-score | G2 cells, % of GMNN control | raw share of cells in G2 (%) |
| --- | --- | --- | --- | --- |
| MMP7 (matrix metallopeptidase 7) | 1 | 1.77 | 15.4 | 10.9 |
| MMP7 (matrix metallopeptidase 7) | 2 | 1.56 | 13.9 | 9.84 |
| MMP7 (matrix metallopeptidase 7) | 3 | -1.08 | -4.62 | 2.19 |
| ANKS1A (ankyrin repeat and sterile alpha motif domain containing 1A) | 1 | -0.993 | -4.02 | 2.81 |
| ANKS1A (ankyrin repeat and sterile alpha motif domain containing 1A) | 2 | 0.575 | 7.01 | 6.27 |
| ANKS1A (ankyrin repeat and sterile alpha motif domain containing 1A) | 3 | 4.43 | 34.2 | 20.1 |
| CSPP1 (centrosome and spindle pole associated protein 1) | 1 | 0.0724 | 3.48 | 5.89 |
| CSPP1 (centrosome and spindle pole associated protein 1) | 2 | -0.128 | 2.07 | 5.21 |

Main list, repeating the preview:
| gene knocked down | reagent | G2 robust z-score | G2 cells, % of GMNN control | raw share of cells in G2 (%) |
| --- | --- | --- | --- | --- |
| MMP7 (matrix metallopeptidase 7) | 1 | 1.77 | 15.4 | 10.9 |
| MMP7 (matrix metallopeptidase 7) | 2 | 1.56 | 13.9 | 9.84 |
| MMP7 (matrix metallopeptidase 7) | 3 | -1.08 | -4.62 | 2.19 |
| ANKS1A (ankyrin repeat and sterile alpha motif domain containing 1A) | 1 | -0.993 | -4.02 | 2.81 |
| ANKS1A (ankyrin repeat and sterile alpha motif domain containing 1A) | 2 | 0.575 | 7.01 | 6.27 |
| ANKS1A (ankyrin repeat and sterile alpha motif domain containing 1A) | 3 | 4.43 | 34.2 | 20.1 |
| CSPP1 (centrosome and spindle pole associated protein 1) | 1 | 0.0724 | 3.48 | 5.89 |
| CSPP1 (centrosome and spindle pole associated protein 1) | 2 | -0.128 | 2.07 | 5.21 |
| CSPP1 (centrosome and spindle pole associated protein 1) | 3 | -0.0235 | 2.8 | 3.14 |
| EFCAB11 (EF-hand calcium binding domain 11) | 1 | -1.06 | -4.51 | 2.17 |
| EFCAB11 (EF-hand calcium binding domain 11) | 2 | 1.23 | 11.6 | 6.65 |
| EFCAB11 (EF-hand calcium binding domain 11) | 3 | 2.54 | 20.8 | 9.53 |
| LRRC25 (leucine rich repeat containing 25) | 1 | -0.956 | -3.76 | 2.76 |
| LRRC25 (leucine rich repeat containing 25) | 2 | -0.827 | -2.85 | 2.2 |
| LRRC25 (leucine rich repeat containing 25) | 3 | -0.141 | 1.97 | 3.29 |
| DCTN6 (dynactin subunit 6) | 1 | -1.26 | -5.89 | 3.13 |
| DCTN6 (dynactin subunit 6) | 2 | 3.22 | 25.6 | 12.1 |
| DCTN6 (dynactin subunit 6) | 3 | 5.11 (active) | 38.9 | 21.8 |
| HMGN2P20 | 1 | 0.294 | 5.04 | 4.64 |
| HMGN2P20 | 2 | -1.02 | -4.2 | 2.19 |
| HMGN2P20 | 3 | -0.0297 | 2.76 | 4.25 |
| FBXO36 (F-box protein 36) | 1 | 0.266 | 4.84 | 6 |
| FBXO36 (F-box protein 36) | 2 | 4.67 | 35.8 | 14.5 |
| FBXO36 (F-box protein 36) | 3 | 1.64 | 14.5 | 7.83 |
| CNOT3 (CCR4-NOT transcription complex subunit 3) | 1 | 0.242 | 4.67 | 5.31 |
| CNOT3 (CCR4-NOT transcription complex subunit 3) | 2 | -0.0494 | 2.62 | 6.07 |
| CNOT3 (CCR4-NOT transcription complex subunit 3) | 3 | 1.38 | 12.7 | 7.71 |
| COL10A1 (collagen type X alpha 1 chain) | 1 | 0.224 | 4.54 | 5.26 |
| COL10A1 (collagen type X alpha 1 chain) | 2 | 0.231 | 4.59 | 7 |
| COL10A1 (collagen type X alpha 1 chain) | 3 | -0.0309 | 2.75 | 4.11 |
| TM2D3 (TM2 domain containing 3) | 1 | 0.26 | 4.8 | 6.44 |
| TM2D3 (TM2 domain containing 3) | 2 | 1.42 | 13 | 9.97 |
| TM2D3 (TM2 domain containing 3) | 3 | 1.78 | 15.5 | 6.61 |
| KLK8 (kallikrein related peptidase 8) | 1 | -0.52 | -0.694 | 3.65 |
| KLK8 (kallikrein related peptidase 8) | 2 | -1.04 | -4.35 | 4.04 |
| KLK8 (kallikrein related peptidase 8) | 3 | -0.62 | -1.4 | 4.41 |
| DSCAML1 (DS cell adhesion molecule like 1) | 1 | 1.3 | 12.1 | 8.62 |
| DSCAML1 (DS cell adhesion molecule like 1) | 2 | 5.16 (active) | 39.3 | 18.5 |
| DSCAML1 (DS cell adhesion molecule like 1) | 3 | 0.533 | 6.72 | 8.43 |
| WDR89 (WD repeat domain 89) | 1 | 0.997 | 9.99 | 8.09 |
| WDR89 (WD repeat domain 89) | 2 | 2.37 | 19.7 | 9.19 |
| WDR89 (WD repeat domain 89) | 3 | -0.786 | -2.56 | 1.07 |
| RBM41 (RNA binding motif protein 41) | 1 | -0.576 | -1.09 | 4.11 |
| RBM41 (RNA binding motif protein 41) | 2 | 0.272 | 4.88 | 6.16 |
| RBM41 (RNA binding motif protein 41) | 3 | -0.937 | -3.63 | 1.98 |
| DNAJB4 (DnaJ heat shock protein family (Hsp40) member B4) | 1 | -0.182 | 1.69 | 4.09 |
| DNAJB4 (DnaJ heat shock protein family (Hsp40) member B4) | 2 | 0.458 | 6.19 | 8.75 |
| DNAJB4 (DnaJ heat shock protein family (Hsp40) member B4) | 3 | 1.86 | 16 | 10.1 |
| CCHCR1 (coiled-coil alpha-helical rod protein 1) | 1 | 0.248 | 4.71 | 5.29 |
| CCHCR1 (coiled-coil alpha-helical rod protein 1) | 2 | 1.59 | 14.1 | 10.2 |
| CCHCR1 (coiled-coil alpha-helical rod protein 1) | 3 | 1.11 | 10.8 | 6.75 |
| IPPK (inositol-pentakisphosphate 2-kinase) | 1 | 4.12 | 32 | 15.5 |
| IPPK (inositol-pentakisphosphate 2-kinase) | 2 | 0.716 | 8.01 | 8.1 |
| IPPK (inositol-pentakisphosphate 2-kinase) | 3 | -0.311 | 0.777 | 3.93 |
| ODAPH (odontogenesis associated phosphoprotein) | 1 | 0.328 | 5.28 | 5.6 |
| ODAPH (odontogenesis associated phosphoprotein) | 2 | 0.0115 | 3.05 | 3.85 |
| ODAPH (odontogenesis associated phosphoprotein) | 3 | -0.154 | 1.89 | 3.73 |
| FGF19 (fibroblast growth factor 19) | 1 | -0.345 | 0.539 | 5.57 |
| FGF19 (fibroblast growth factor 19) | 2 | 0.169 | 4.16 | 5.68 |
| FGF19 (fibroblast growth factor 19) | 3 | 0.498 | 6.47 | 5.76 |
| CIRSR (corepressor of RBPJ and splicing regulator) | 1 | -0.685 | -1.85 | 2.91 |
| CIRSR (corepressor of RBPJ and splicing regulator) | 2 | -0.883 | -3.24 | 4.54 |
| CIRSR (corepressor of RBPJ and splicing regulator) | 3 | 0.753 | 8.27 | 6.8 |
| ITGAM (integrin subunit alpha M) | 1 | 4.93 | 37.6 | 18 |
| ITGAM (integrin subunit alpha M) | 2 | 0.675 | 7.72 | 7.85 |
| ITGAM (integrin subunit alpha M) | 3 | 0.282 | 4.95 | 7.57 |
| HMGB3 (high mobility group box 3) | 1 | 0.434 | 6.02 | 8.13 |
| HMGB3 (high mobility group box 3) | 2 | -0.134 | 2.03 | 4.83 |
| HMGB3 (high mobility group box 3) | 3 | -0.532 | -0.774 | 3.22 |
